Experiments:
[1] = ESI-MS collision-induced dissociation of dendrimer/DMPG [1:1]2+ complexes; assay type: physicochemical; settings: [1:1]2+ complex, gas phase, center-of-mass collision energy, single collision conditions; average of three measurements
[2] = ESI-MS collision-induced dissociation of dendrimer/DMPC [1:1]2+ complexes; assay type: physicochemical; settings: [1:1]2+ complex, gas phase, center-of-mass collision energy, single collision conditions; average of three measurements

Row | Structure (SMILES) | Collision energy for 50% dissociation of the complex (CID50), DMPG/dendrimer [1] | Collision energy for 50% dissociation of the complex (CID50), DMPC/dendrimer [2]
1 | N[C@@H](CCCCNC(=O)OCc1ccccc1Cl)C(=O)NCCNC(=O)CCN(CCC[C@@H](C(=O)Nc1cccnc1)N(CCC(=O)NCCNC(=O)[C@@H](N)CCCCNC(=O)OCc1ccccc1Cl)CCC(=O)NCCNC(=O)[C@@H](N)CCCCNC(=O)OCc1ccccc1Cl)CCC(=O)NCCNC(=O)[C@@H](N)CCCCNC(=O)OCc1ccccc1Cl [Dendrimer 3e] | 0.45 eV | 0.33 eV
2 | NCCCC[C@H](NC(=O)OCc1ccccc1Cl)C(=O)NCCNC(=O)CCN(CCC[C@@H](C(=O)Nc1cccnc1)N(CCC(=O)NCCNC(=O)[C@H](CCCCN)NC(=O)OCc1ccccc1Cl)CCC(=O)NCCNC(=O)[C@H](CCCCN)NC(=O)OCc1ccccc1Cl)CCC(=O)NCCNC(=O)[C@H](CCCCN)NC(=O)OCc1ccccc1Cl [Dendrimer 3a] | 0.55 eV | 0.36 eV

From PMC6270063, “Novel Antimicrobial Peptide Dendrimers with Amphiphilic Surface and Their Interactions with Phospholipids — Insights from Mass Spectrometry” (Molecules, 2013)
